Laboratory results from PubChem BioAssay AID2685 (National Center for Advancing Translational Sciences (NCATS), 2010).
The other results are listed elsewhere or left out. These are further read-outs of the screen, such as a control signal, another cell line or another target. No call is given for them. Compounds called inactive in the main read-out are mostly missing here. Potencies come from curve fits of mixed quality, noted in brackets.

Test: qHTS Assay for Lipid Storage Modulators in Drosophila S3 Cells;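 as to cell number change: cells counted by Cell Tracker Red CMTPX staining in the red channel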
Conditions: BODIPY lipid droplet fluorescence, 18-24 h; for cell number change: measured here: cell count max response, cells fed with added oleic acid
How it was run: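 Drosophila S3 cells loaded with oleic acid (400 uM, as added) and compounds at several concentrations; lipid droplets imaged by 488-nm laser-scanning cytometry, 500–530 nm intensity and object ratio to cell channel. Percent activity normalized to 20 uM Triacsin C.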

[1] = measured here: cell number channel AC50, cells fed with added oleic acid
[2] = measured here: lipid fluorescence (Fed channel) AC50, cells fed with added oleic acid

Row | Compound | cell number change [%] | AC50 [1] | AC50 [2]
1 | CCN(CC)CC(=O)c1c(N)n(Cc2ccccc2)c(=O)n(C)c1=O | 20.4 | 1.84 µM [rising, full curve, poor fit] | 29.1 µM [rising, single point]
2 | Cc1ccc2c(c1)nnn2C1CCN(C(=O)c2cccs2)CC1 | 16.3 | 0.651 µM [rising, single point] | 
3 | Cc1nc(NCCc2ccc(Cl)cc2)c2nnn(Cc3ccccc3)c2n1 | 21.2 | 1.3 µM [rising, full curve, poor fit] | 6.51 µM [rising, partial curve, poor fit]
4 | Cc1ccc(C)c(NC(=O)CCC(=O)NN=C2CCCC2)c1 |  |  | 29.1 µM [rising, single point]
5 | NNC(=O)c1cc2c(s1)CCCCCC2 | 131 |  | 29.1 µM [rising, single point]
6 | Cn1nnnc1SCC(=O)Nc1cc(C(C)(C)C)nn1-c1ccccc1 | 15.1 | 0.13 µM [falling, full curve, poor fit] | 
7 | CC(C)Oc1cccc(C(=O)NC(=S)NCc2cccnc2)c1 | -4.1 |  | 1.03 µM [falling, partial curve, poor fit]
8 | NC(=O)N/N=C/c1cn(-c2ccccc2)nc1-c1cccs1 | -41.5 | 0.82 µM [falling, full curve, poor fit] | 18.4 µM [falling, partial curve]
9 | COc1ccc(C2=NCN(c3ccc(C)cc3)C(=S)N2)cc1 | -83.2 | 16.4 µM [falling, single point] | 18.4 µM [falling, single point]
10 | COc1ccccc1N(Cc1cc(=O)[nH]c2ccccc12)C(C)=O | 12.6 |  | 29.1 µM [rising, single point]
11 | CCOc1cc(C(=S)N2CCOCC2)ccc1OS(=O)(=O)c1ccc(OC)cc1 | -43.9 |  | 6.51 µM [rising, single point]
12 | O=C(NCc1cccs1)c1ccc(CS(=O)Cc2ccccc2Cl)o1 (configuration not stated) | -22.6 |  | 1.46 µM [rising, full curve]
13 | CCCN1C(=O)/C(=C/c2ccc(C)s2)SC1=Nc1ccc(OC)cc1 | -8.65 |  | 
14 | Brc1ccc(-c2nnc3sc(CN4CCN(c5ccccc5)CC4)cn23)cc1 | 8.28 |  | 0.0231 µM [rising, full curve, poor fit]
15 | COc1cc(OC)c(OC)cc1CNC(=O)c1ccc(COc2ccccc2)cc1 | 10.1 |  | 6.51 µM [rising, single point]
16 | Cc1ccc(NC(=O)CCS(=O)(=O)c2ccc3c(c2)NC(=O)C(C)S3)cc1Cl (configuration not stated) | 26.3 |  | 2.31 µM [rising, partial curve]
17 | CC(C)n1nc(C(=O)NCCc2ccc(S(N)(=O)=O)cc2)c2ccccc2c1=O | 4.79 |  | 
18 | COc1ccccc1C1NC(=O)NC(C)=C1C(C)=O (configuration not stated) |  |  | 29.1 µM [falling, single point]
19 | O=C(COC(=O)Cc1ccc(Cl)cc1)NCc1ccc2c(c1)OCO2 |  |  | 0.651 µM [falling, single point]

As entered above.
AC50 [2] with `Brc1ccc(-c2nnc3sc(CN4CCN(c5ccccc5)CC4)cn23)cc1` reads 0.0231 µM [rising, full curve, poor fit]
cell number change [%] with `CCN(CC)CC(=O)c1c(N)n(Cc2ccccc2)c(=O)n(C)c1=O` reads 20.4

Later entries

Row | Compound | cell number change [%] | AC50 [1] | AC50 [2]
20 | O=C(NC1CCN(Cc2ccccc2)C1)c1cc(S(=O)(=O)N2CCOCC2)ccc1Cl (configuration not stated) | -25.3 |  | 29.1 µM [falling, single point]
21 | CCOC(=O)c1c(C)[nH]c(C)c1S(=O)(=O)N(C)CC(=O)NCc1cccc(C)c1 | -4.01 |  | 
22 | CC(=O)Nc1ccccc1OCC(=O)NC1CCCCC1C (configuration not stated) | 16.3 |  | 0.103 µM [falling, full curve, poor fit]
23 | CCOc1ccc(N2C(=O)C3ON(c4ccccc4)C(c4cccs4)C3C2=O)cc1 (configuration not stated) |  |  | 0.164 µM [rising, full curve, poor fit]
24 | CN(C)c1ccc(NC(=O)c2ccc(Cn3cc([N+](=O)[O-])cn3)cc2)cc1 |  |  | 0.517 µM [rising, single point]
25 | Cc1cc(C)n(-c2nc3c(c(=O)n(C)c(=O)n3C)n2CCO)n1 | 39.7 |  | 
26 | Cc1ccc(S(=O)(=O)N2CCN(C(=O)COC(=O)C3CCC3)CC2)cc1 | -58.6 | 25.9 µM [falling, partial curve] | 
27 | Cc1ccc(C)c(N=Cc2cc3c(cc2[N+](=O)[O-])OCO3)c1 | -32.9 | 29.1 µM [falling, single point] | 
28 | O=C(Nc1ccc(COc2ccccc2)cc1)Nc1cccc(C(=O)O)c1 | 24.7 |  | 18.4 µM [rising, partial curve]
29 | CC(C)Oc1ccc(C(=O)NCCCNC(=O)c2ccccn2)cc1 | -22.9 | 0.116 µM [falling, full curve, poor fit] | 10.3 µM [rising, partial curve]
30 | Cc1ccc(C2=N/C(=C\c3cccs3)C(=O)N2Nc2ccccc2)cc1 | 10.4 |  | 0.0651 µM [rising, full curve, poor fit]
31 | CSc1nnnn1-c1ccc(C(=O)OCC(=O)N2CCOCC2)cc1 | 17.7 |  | 5.8 µM [falling, single point]
32 | CN(C)c1ccc(NC(=O)COC(=O)c2cc(Cl)ccc2[N+](=O)[O-])cc1 | 10.7 | 7.31 µM [rising, partial curve, poor fit] | 
33 | COc1cc(C(=O)Nc2cccc(C)c2C)ccc1OCC(=O)N1CCOCC1 | -3.76 |  | 4.11 µM [rising, full curve, poor fit]
34 | CC1Oc2ccccc2N(CC(=O)N2CCc3ccccc32)C1=O (configuration not stated) | 66.5 | 18.4 µM [rising, single point] | 5.17 µM [rising, single point]
35 | O=C(CC1(O)C(=O)N(CN2CCOCC2)c2ccccc21)c1ccccc1 (configuration not stated) | -63.5 | 20.6 µM [falling, single point] | 
36 | CCn1c(=O)cc(OCC(=O)N2CCN(c3cccc(C(F)(F)F)c3)CC2)c2ccccc21 | -13.7 |  | 
37 | CC(C)Oc1ccc(C(=O)N/N=C/c2ccc(-c3ccc(S(=O)(=O)Nc4ncccn4)cc3)o2)cc1 | -77.1 | 32.6 µM [falling, single point] | 29.1 µM [falling, partial curve]
38 | CC(C)CN(C(=O)COC(=O)CCc1c[nH]c2ccccc12)c1c(N)n(Cc2ccccc2)c(=O)[nH]c1=O | 18.9 |  | 
